{
  "source": "paper PMC5998028",
  "about": "(Scientific Reports, 2018)",
  "assay": "general procedure: Fmoc solid-phase peptide synthesis; HMPB-ChemMatrix resin (from aminomethyl-ChemMatrix, 0.69 mmol/g); HATU/NMM",
  "conditions": "whole synthesis, overall",
  "note": "Where a sequence shows no end group, the ends are not given.",
  "data": [
    {"sequence": "KYYGNGVTCGKHSCSVDWGKATTCIINNGALAWATGGHQGNHKC", "values": [
      {"measurement": "isolated yield", "value": 55, "unit": "%"}
    ]}
  ]
}
